Source: paper PMC7782846

Target: T1, STING (bait of the mass spectrometry of STING-binding proteins) (UniProt Q3TBT3)
T1 sequence: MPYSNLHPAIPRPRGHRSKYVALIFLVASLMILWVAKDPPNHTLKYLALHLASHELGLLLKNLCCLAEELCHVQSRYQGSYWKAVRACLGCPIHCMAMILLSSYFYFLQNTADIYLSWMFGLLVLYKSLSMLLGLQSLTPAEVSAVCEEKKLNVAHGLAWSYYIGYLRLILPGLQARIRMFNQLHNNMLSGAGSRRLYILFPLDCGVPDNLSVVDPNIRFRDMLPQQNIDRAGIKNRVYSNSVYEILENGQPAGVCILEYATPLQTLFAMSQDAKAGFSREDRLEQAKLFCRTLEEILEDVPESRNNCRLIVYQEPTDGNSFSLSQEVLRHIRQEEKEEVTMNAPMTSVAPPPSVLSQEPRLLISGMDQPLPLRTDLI
Assay: affinity purification with mass spectrometry; lysate (1% Triton X-100, 150 mM NaCl, pH 7.2) on anti-FLAG M2 Affinity Gel overnight at 4 °C, FLAG peptide elution, tryptic digest, LC-MS/MS

B1: Smpd4 (protein, UniProt Q6ZPR5 1-823)
chain: MAFPHLQQPSFLLASLKADSINKPFAQRCQDLVKVIEDFPAKELHAVFPWLVESIFGSLDGVLVGWNLRCLQGRVNPVEYSTAMEFLDPSGPMMKLVYKLQAEDYNFDFPVSCLPGPVKASIQENVLPDSPLYHNKVQFPPTGGLGLNLALNPFEYYMFYFALSLISQKPMSMTLHVRTSDCAYFTLVDRYLSWFLPTEGSVPPPLCSSPGGSSPSPAPRTPAMPFASYGLHTSLLKRHISHQTSVNADPASHEIWRSETLLQVFVEMWLHHYSLEMYQKMQSPHAKLEVLHYRLTVSSALHSPAQPSLQALHAYQESFTPTEEHVLVVRLLLKHLHAFANSLKPDQASPSAHSHATSPLEEFKRAAVPRFVQQKLYVFLQHCFGHWPLDATFRAVLEMWLSYLQPWRYAPEKQAQGSDPQPRCVSEKWAPFIQENLLMYTKLFVSFLNRALRTDLVSPKNALMVFRVAKVFAQPNLAEMIQKGEQLFLEPELIIPHRQHRLFTVTTSFLSPWPPVVTDASFKVKSHVYSLEGQDCKYTPMFGPEIRTLVLRLAQLITQAKQTAKSISDQYVESPTGRSFLSWLTFGLTDTNSCYPANDLDEIGQDSIRKTDEYLEKALEYLRQIFRLSEAQLAQLTLALGSARDENGKQQLPDCIVGEEGLILTPLGRYQIINGLRRFEIEYQGDLELQPIRSYEITSLVRALFRLSSAINRRFAGQMAALCSRNDFLGSFCRYHLTEPALSNRHLLSPVGRRQVTNPARGPRLSLRFLGSYRTLLLLLMAFFVASLFCIGPLSCSLLLVLGYVLYAIAMTLLTERGKLHQL
binding: binds

B2: Stt3b (protein, UniProt Q3TDQ1 1-823)
chain: MAEPSAPESKHKSSLNSSPWSGLMALGNSRHGHHGPGTQSASSAAAPKPGPPAGLSGGLSQPAGWQSLLSFTILFLAWLAGFSSRLFAVIRFESIIHEFDPWFNYRSTHHLASHGFYEFLNWFDERAWYPLGRIVGGTVYPGLMITAGLIHWILNTLNITVHIRDVCVFLAPTFSGLTSISTFLLTRELWNQGAGLLAACFIAIVPGYISRSVAGSFDNEGIAIFALQFTYYLWVKSVKTGSVFWTMCCCLSYFYMVSAWGGYVFIINLIPLHVFVLLLMQRYSKRVYIAYSTFYIVGLILSMQIPFVGFQPIRTSEHMAAAGVFALLQAYAFLQYLRDRLTKQEFQTLFFLGVSLAAGAVFLSVIYLTYTGYIAPWSGRFYSLWDTGYAKIHIPIIASVSEHQPTTWVSFFFDLHILVCTFPAGLWFCIKNINDERVFVALYAISAVYFAGVMVRLMLTLTPVVCMLSAIAFSNVFEHYLGDDMKRENPPVEDSSDEDDKRNPGNLYDKAGKVRKHVTEQEKPEEGLGPNIKSIVTMLMLMLLMMFAVHCTWVTSNAYSSPSVVLASYNHDGTRNILDDFREAYFWLRQNTDEHARVMSWWDYGYQIAGMANRTTLVDNNTWNNSHIALVGKAMSSNETAAYKIMRSLDVDYVLVIFGGVIGYSGDDINKFLWMVRIAEGEHPKDIREGDYFTQQGEFRVDKAGSPTLLNCLMYKMSYYRFGEMQLDFRTPPGFDRTRNAEIGNKDIKFKHLEEAFTSEHWLVRIYKVKAPDNRETLGHKPRVTNIVPKQKYLSKKTTKRKRGYVKNKLVFKKGKKTSKKTV
binding: binds

Results are given in words; binding and its absence hold for the method and conditions named. In cells and extracts the contact can be indirect. These calls come from enrichment with a bait or labelling near it, and not all partners need be listed.
